The list shows a part of the results. The main result of the screen is listed elsewhere. These columns were measured beside it and carry no call. Most of these compounds were active or inconclusive in the main read-out, so they are no random draw. The note in brackets gives the kind of curve behind each potency; many fits are weak.

We go through 63 compounds from PubChem BioAssay AID445 (National Center for Advancing Translational Sciences (NCATS), 2006).

The assay is described as follows: IkB Signaling. Particulars: ABC-DLBCL IkBa-CBG/CBR dual luciferase ratio (green luciferase fused to IkBa over red control in OCI-Ly3 lymphoma cells), 4 h. The method in brief: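 Curves were fitted separately to fusion (green), unfused (red) and ratio luminescence, then classed by r2, magnitude and activity. Cells: OCI-Ly3, 4 h compound plus doxycycline at 37C; 10 uM MG-132 defined full response.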
[1] abbreviates: measured here: control luc red channel unless noted.
Setting [2] is: measured here: IkB-luc green channel.
[3] abbreviates: measured here: control luc red channel.

Take `CCOC(=O)C1CCN(C(=O)c2ccc(C)c(NC(=O)c3nsc4ccccc34)c2)CC1`: the AC50 under setting [1] is 39.8 µM [falling, partial curve].

Regarding `CCc1cccc(C)c1Nc1c(-c2cccs2)nc2ncccn12`, under setting [1], the AC50 is 31.6 µM [falling, single point].

As for `CCCCn1c(SCC(=O)Nc2ccc3c(c2)OCO3)nc2c1c(=O)n(C)c(=O)n2C`, the concentration at half-maximal activity (AC50) under setting [1] was 39.8 µM [falling, single point].

On to `CC(C)c1ccc(S(=O)(=O)NCc2nc3cccnc3n2Cc2ccc(F)cc2)cc1`, for which the concentration at half-maximal activity (AC50) under setting [1] was 31.6 µM [falling, partial curve].

As to `Cc1ccc(C(=O)CC2(O)C(=O)N(CCc3ccccc3)c3ccc(Br)cc32)cc1` (stereo not given), the half-maximal activity concentration (AC50) under setting [1] was 25.1 µM [falling, partial curve].

For `CCn1c2ccccc2c2cc(Nc3cc(C)nc4ncnn34)ccc21`, the AC50 was 0.794 µM [rising, full curve] under setting [2] and 0.316 µM [rising, full curve] under setting [3].

Take `CCOC(=O)c1cc2c(=O)n3ccccc3nc2n(CCCOC)c1=NC(=O)c1cc2ccccc2o1`: under setting [1], the concentration at half-maximal activity (AC50) is 12.6 µM [falling, partial curve].

As to `Cc1ccc2oc(=O)c3cnn(CC(=O)N4CCc5ccccc5C4)c3c2c1`, the AC50 under setting [1] is 15.8 µM [falling, partial curve].

Regarding `Cc1ccc(CCNC(=O)c2cc3ccccn3n2)cc1`, under setting [1], the half-maximal activity concentration (AC50) is 39.8 µM [falling, single point].

Regarding `Cc1ccc(Cn2c(C)c3cnn(CC(=O)N4CCN(c5cc(C)ccc5C)CC4)c(=O)c3c2C)cc1`, the half-maximal activity concentration (AC50) under setting [1] is 7.94 µM [falling, partial curve].

Take `COc1cccc(-n2c(C)nc3c(cnn3-c3ccc(C)c(C)c3)c2=O)c1`: the concentration at half-maximal activity (AC50) under setting [1] was 31.6 µM [falling, single point].

Take `O=c1oc2ccc(Cl)cc2cc1-c1nc(-c2cccs2)no1`: under setting [1], the AC50 is 0.398 µM [falling, full curve].

With `COc1ccc(NC(=O)Cn2c(=O)n(Cc3ccco3)c(=O)c3sc4ccccc4c32)cc1Cl`, under setting [1], the AC50 is 25.1 µM [falling, single point].

Regarding `CC(C)c1ccc(NC(=O)CN2C(=O)C3(SCC(=O)N3c3ccc(F)cc3)c3ccccc32)cc1` (stereo not given), under setting [1], the half-maximal activity concentration (AC50) was 15.8 µM [falling, partial curve].

As for `O=C(Nc1ccc(Cl)cc1)c1ccc2c(c1)N(Cc1ccccc1)CCS2`, the AC50 under setting [1] was 25.1 µM [falling, single point].

As for `CCN(C(=O)CSc1nc2ccccc2nc1Cc1ccccc1OC)c1ccccc1`, the concentration at half-maximal activity (AC50) under setting [1] is 39.8 µM [falling, single point].

Regarding `CCCC12CN3CC(CCC)(CN(C1)C3c1c[nH]c3ccc(OC)cc13)C2=O` (stereo not given), under setting [1], the AC50 is 12.6 µM [falling, partial curve].

Regarding `Cc1nc(CC(=O)Nc2ccc(C(N)=O)cc2)cs1`, under setting [1], the AC50 was 39.8 µM [falling, single point].

Take `CCSC1=NC2(CCN(C(=O)NC3CCCCC3)CC2)N=C1c1ccc(OC)cc1`: the AC50 under setting [1] is 25.1 µM [falling, single point].

For `CCOc1ccccc1CNC(=O)CCc1cn(C)c2ccccc12`, the AC50 under setting [1] was 25.1 µM [falling, single point].

`CC(C(=O)NCc1ccccc1)n1ccc2cc(S(=O)(=O)N3CCCC3)ccc21` (stereo not given): the AC50 under setting [1] was 12.6 µM [falling, partial curve].

With `CCOc1ccc(S(=O)(=O)Nc2cc3c(C(=O)OCc4ccccc4)c(C)oc3c3ccccc23)cc1`, under setting [1], the AC50 was 25.1 µM [falling, single point].

As for `COc1ccc2c(c1)c1c(c(=O)n(-c3cc(Cl)ccc3C)c(=O)n1Cc1ccc(F)cc1)n2C`, the AC50 under setting [1] is 10 µM [rising, partial curve, poor fit].

On to `Cc1c(Cl)cccc1-n1ncc(C(=O)NC2CCCC2)c1C1CCN(C(=O)OC(C)(C)C)CC1`, for which the concentration at half-maximal activity (AC50) under setting [1] was 15.8 µM [falling, partial curve].

As to `Cc1ccc(NC(=O)N2CCN3CCCCC3C2)cc1C` (stereo not given), the AC50 under setting [1] is 10 µM [falling, single point].

For the compound `COc1ccccc1C(=O)OCc1cc(=O)n2c(C)csc2n1`, the half-maximal activity concentration (AC50) under setting [1] was 12.6 µM [falling, partial curve].

As for `CCCOC(=O)c1c(-c2ccccc2)c(-c2ccccc2)nn(C)c1=O`, the concentration at half-maximal activity (AC50) under setting [1] was 20 µM [falling, single point].

Take `Cc1cc(C)c(-c2n[nH]c3c2C(c2ccccc2F)N(CCO)C3=O)c(O)c1` (stereo not given): under setting [1], the half-maximal activity concentration (AC50) is 25.1 µM [falling, single point].

As to `Cc1ccc(-n2nnnc2SCC(=O)NCCC2=CCCCC2)c(C)c1`, the AC50 under setting [1] is 39.8 µM [falling, single point].

Take `N#C/C(=C(/O)CN1C(=O)c2ccccc2C1=O)c1nc2ccccc2[nH]1`: under setting [1], the AC50 was 25.1 µM [falling, partial curve].

In the case of `COC(=O)C1CCN(C(=O)COc2cc3sc(C)nc3c3sccc23)CC1`, the AC50 under setting [1] is 6.31 µM [falling, partial curve].

Consider `Cc1ccc(-n2nc3c(N4CCCC(C(=O)NCc5ccccc5C)C4)nnc(C)c3c2C)cc1` (stereo not given), for which the AC50 under setting [1] was 10 µM [falling, partial curve].

As to `CC(=O)NC(c1ccco1)c1ccc2cccnc2c1O` (stereo not given), under setting [1], the AC50 was 15.8 µM [falling, partial curve].

`Cc1ccc2scc(N3CCCC(C)C3)c(=O)c2c1` (stereo not given): under setting [1], the AC50 was 1 µM [falling, partial curve].

Turning to `CCOc1ccc2c(c1)c(=O)c(C(=O)c1ccccc1)cn2Cc1ccccc1F`, the AC50 under setting [1] is 39.8 µM [falling, partial curve].

Take `Cc1ccc2nc(SCC(=O)Nc3c(C)n(C)n(-c4ccccc4)c3=O)[nH]c2c1`: the AC50 under setting [1] was 7.94 µM [falling, partial curve].

Consider `COc1ccc(OC)c(CNS(=O)(=O)c2cc(-c3onc(C)c3C)ccc2C)c1`, for which the half-maximal activity concentration (AC50) under setting [1] is 3.98 µM [falling, full curve].

Regarding `CCN(CC)C(=O)c1sc2c(c1C)c(=O)n(-c1ccc(C)c(C)c1)c(=O)n2CC(=O)Nc1ccc(OC)cc1OC`, under setting [1], the AC50 is 3.16 µM [rising, partial curve].

Take `COc1ccc(N2CCN(CCCNC(=O)c3nnc(Cc4ccccc4Cl)o3)CC2)cc1`: under setting [1], the half-maximal activity concentration (AC50) is 39.8 µM [falling, single point].

For `Cc1cc(C)n2c(Nc3ccc4c(c3)OCCO4)c(-c3ccccc3)nc2n1`, under setting [1], the concentration at half-maximal activity (AC50) was 12.6 µM [falling, partial curve].

As for `COc1ccc(/C=C/C(=O)Nc2cc(-c3nc4ccccc4o3)ccc2OC)cc1`, the AC50 under setting [1] was 0.316 µM [falling, full curve].

In the case of `Cc1ccc(S(=O)(=O)c2[nH]c(-c3ccccc3)nc2SC(C)C(=O)O)cc1` (stereo not given), under setting [1], the AC50 was 20 µM [falling, partial curve].

Regarding `COc1cc2ncnc(Nc3cccc(Br)c3)c2cc1OC`, under setting [1], the concentration at half-maximal activity (AC50) was 39.8 µM [falling, partial curve, poor fit].

Turning to `COc1cccc(C2=CC(c3cccc(OC)c3OC(F)F)n3nnnc3N2)c1` (stereo not given), the AC50 under setting [1] is 15.8 µM [falling, partial curve].

Consider `O=C(C1CC1)N1CCc2cc(S(=O)(=O)N(CCO)Cc3ccccc3)ccc21`, for which the AC50 under setting [1] is 25.1 µM [falling, single point].

For `COc1ccc(CNC(=O)COC(=O)c2n[nH]c3ccccc23)cc1`, under setting [1], the concentration at half-maximal activity (AC50) is 15.8 µM [falling, partial curve].

As for `N#Cc1nc(-c2ccc(OCc3ccccc3Cl)cc2)oc1NCCCn1ccnc1`, under setting [1], the AC50 is 25.1 µM [falling, partial curve].

For `COc1cc2ccccc2cc1C(=O)N1CCN(c2nc3c(F)cccc3s2)CC1`, the half-maximal activity concentration (AC50) under setting [1] was 31.6 µM [falling, partial curve].

For `Cn1c(COc2ccccc2C(C)(C)C)nc2ccccc21`, the AC50 under setting [1] is 20 µM [falling, single point].

For `O=C(CSc1nnc(Cc2cccs2)n1Cc1ccco1)Nc1cc(Cl)cc(Cl)c1`, the AC50 under setting [1] is 6.31 µM [falling, partial curve].

For the compound `CC(C)(CC(=O)NCc1ccc(Cl)cc1Cl)CC1=NS(=O)(=O)c2ccccc2N1`, under setting [1], the AC50 is 3.16 µM [falling, partial curve].

With `CN(C(=O)c1ccccc1)c1nc2ccccc2s1`, under setting [1], the AC50 is 31.6 µM [falling, partial curve].

Turning to `COc1ccc(-c2cc(C(=O)NC(C)C)no2)cc1`, the concentration at half-maximal activity (AC50) under setting [1] was 3.98 µM [falling, full curve].

Turning to `Cc1ccc(C(=O)N2CCN(c3cccc(Cl)c3)CC2)cc1-n1c(C)nc2cccnc21`, the AC50 under setting [1] is 20 µM [falling, single point].

Regarding `CCc1ccccc1N(CC)C(=O)C(=O)Nc1ccc2nc3n(c(=O)c2c1)CCCCC3`, under setting [1], the AC50 was 15.8 µM [falling, partial curve].

On to `COc1cc(NC(=O)COc2cccc(OC)c2)cc(OC)c1`, for which the AC50 under setting [1] was 7.94 µM [falling, partial curve].

For the compound `FC(F)(F)c1cccc(N2CCN(c3nc4ccccc4n4cnnc34)CC2)c1`, the AC50 under setting [1] is 7.94 µM [falling, partial curve].

Regarding `CC(=O)c1sc(Nc2nc3ccc(F)cc3s2)nc1C`, the concentration at half-maximal activity (AC50) was 6.31 µM [rising, single point] under setting [2] and 20 µM [falling, single point] under setting [3].

Turning to `CCS(=O)(=O)N1CCc2cc(C(=O)NC(C)c3ccccc3)ccc21` (stereo not given), the AC50 under setting [1] was 10 µM [falling, partial curve].

Consider `CCOC(=O)N1CCC(N(C(=O)Nc2ccc(Cl)c(Cl)c2)C(C)CC)CC1` (stereo not given), for which the half-maximal activity concentration (AC50) under setting [1] is 12.6 µM [falling, partial curve].

As for `O=c1c2sc3ccccc3c2n(Cc2cccc(C(F)(F)F)c2)c(=O)n1-c1ccccc1`, the AC50 under setting [1] was 1 µM [rising, full curve, poor fit].

Take `O=C1CC(c2ccccc2)Cc2[nH]c(=O)c(-c3nc(-c4ccc(Cl)c(Cl)c4)cs3)cc21` (stereo not given): the half-maximal activity concentration (AC50) under setting [1] was 10 µM [falling, partial curve].

Take `COc1ccc(Cl)cc1NC(=O)C(=O)NCc1ccc(Cl)cc1`: the AC50 under setting [1] was 2 µM [falling, full curve].

One may read the AC50 as the midpoint of the concentration-response curve, whichever way the signal moves.
